Assay results: PubChem BioAssay (Tox21)
The inconclusive results got no clear call from the source; some entries with a clear call stand among them for comparison. Where the call is inconclusive, the potency comes from a doubtful curve fit. The source made the active and inactive calls. The call rests on the fitted dose curve.

The chains behind the UniProt entries cited, without tags or fusion partners. Where a name states a change or a piece, a line headed by the entry shows the natural chain unless it says otherwise.
UniProt P19793: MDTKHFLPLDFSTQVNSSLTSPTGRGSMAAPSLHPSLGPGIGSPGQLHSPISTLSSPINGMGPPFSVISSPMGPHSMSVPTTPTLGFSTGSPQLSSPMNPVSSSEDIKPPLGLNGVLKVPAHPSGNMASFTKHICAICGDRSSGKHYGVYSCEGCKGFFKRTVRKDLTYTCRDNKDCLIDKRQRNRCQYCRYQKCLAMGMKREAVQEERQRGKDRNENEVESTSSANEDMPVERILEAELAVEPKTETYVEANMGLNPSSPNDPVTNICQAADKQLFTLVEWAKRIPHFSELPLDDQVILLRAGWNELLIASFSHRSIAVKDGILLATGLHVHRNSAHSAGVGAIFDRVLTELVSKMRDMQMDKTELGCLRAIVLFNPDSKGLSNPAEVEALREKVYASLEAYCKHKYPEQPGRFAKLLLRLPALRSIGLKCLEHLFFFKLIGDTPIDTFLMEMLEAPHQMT

Target: Retinoic acid receptor RXR-alpha (Homo sapiens) (UniProt P19793)
Experiment: qHTS assay to identify small molecule agonists of the RXR signaling pathway (AID 1159527); further: nearly all actives have a fitted effect of over 35% in size
Conditions: HEK293T RXRa-UAS-bla, beta-lactamase ratio, 16 h; activation: at 76.8 µM (top of the series) unless noted
Excerpt: U.S. Tox21 Program National Center for Advancing Translational Sciences [NCATS] NIH Chemical Genomics Center [NCGC] U.S. Environmental Protection Agency [EPA] National Institutes of Environmental Health Sciences [NIEHS] National Toxicology Program [NTP] U.S. Food and Drug Administration [FDA] Tox21 Assay Overview: The Retinoid X receptor (RXR), a nuclear hormone receptor expressed in liver, spleen, placenta, epidermis, central nervous system. These receptors are able to form homo and heterodimers with other nuclear receptors and due to this heterodimerizing ability, RXR functions as master regulators producing diverse physiological effects. Three subtypes of RXR exist; alpha, beta and gamma. Retinoid X receptor alpha (RXR-alpha) has potential roles in metabolic signaling pathways, skin alopecia, dermal cysts, cardiac development, insulin sensitization etc. Therefore screening environmental chemicals on RXR-alpha signaling can be used for the studies focused on such therapeutic applications. For quantification of RXR-alpha ligands signaling, GeneBLAzer RXR alpha-UAS-bla HEK 293T (Life Technologies, Carlsbad, CA) cells containing a beta-lactamase reporter-gene under control of Retinoid X receptor-alpha response element were used to screen Tox21 10K library.
Tox21 Assay Protocol Summary: RXR-alpha HEK 293T cells were dispensed at 2,000 cells/6 uL of assay medium containing 2% charcoal-stripped FBS using a Multidrop Combi (ThermoFisher Scientific, Waltham, MA) dispenser. The assay was performed in black wall/clear-bottom 1536-well plates (Greiner Bio-One North America Inc. Monroe, NC). 9-cis retinoic acid was used as a positive control in the agonist mode screen. After the assay plates were incubated at 37 C and 5% CO2 for 5 hr, 23 nL of compounds dissolved in DMSO, positive controls or DMSO only were transferred to the assay plate by a Pintool station (Kalypsys, San Diego, CA). The assay plates were incubated at 37 C and 5% CO2 for 16 hr. One uL of LiveBLAzer B/G FRET substrate (Life Technologies) was added using a Flying Reagent Dispenser (Aurora Discovery, San Diego, CA) and the plates were incubated at room temperature for 2 hr. Fluorescence intensity (405 nm excitation, 460/530 nm emission) was measured using an Envision plate reader (PerkinElmer, Shelton, CT).
On the % scale 0 is the no-effect control and ±100 the full control effect; potency means the concentration at half of the fitted maximal effect.

Row | Structure (SMILES) | activation | Potency
1 | CC(C)NC(=O)c1ccccc1N | inconclusive: 7.26% | –
2 | CCOC(=O)CN1CCCC1=O | inactive: 11% [at 35.3 µM] | –
3 | CC(C)(C)c1cc(CCC(=O)NCCCCCCNC(=O)CCc2cc(C(C)(C)C)c(O)c(C(C)(C)C)c2)cc(C(C)(C)C)c1O | inactive: 2.22% | –
4 | Nc1ccc(C(=O)N2CC3CC(CN(Cc4ccccc4)C3)C2)cc1 | inconclusive: -20.8% [at 35.3 µM] | –
5 | N[C@H]1C(O)O[C@H](CO)[C@H](O)[C@@H]1O (stereo not given in full) | inconclusive: 19.7% | –
6 | CCCCC/C=C/CC(=O)OC | inactive: 11.9% | –
7 | CN(C)CCC[C@@]1(c2ccc(F)cc2)OCc2cc(C#N)ccc21 | inactive: -1.86% [at 35.3 µM] | –
8 | c1coc(Cn2cccc2)c1 | inactive: 6.37% | –
9 | C=C(C)C(=O)OCc1ccccc1 | inactive: 5.34% | –
10 | CC(=O)c1cccnc1 | inconclusive: 6.4% | –
11 | COc1ccc(C(C)=O)cc1 | – | inconclusive: 22.5 µM [activator]
12 | O=S(O)(O)=S | inactive: 4.57% [at 6.98 µM] | –
13 | OCC1(CO)COCOC1 | inactive: 7.06% | –
14 | N#CCCNCCC#N | inconclusive: -7.36% | –
15 | CCCCCCS | inactive: -10.3% | –
16 | CC(=O)Nc1ccccc1O | – | inconclusive: 1.1 µM [inhibitor, partial curve, poor fit]
17 | Nc1ccc(F)cc1F | inconclusive: 14% | –
18 | CC(C)c1ccc(C=O)cc1 | – | active: 43.6 µM
19 | CCCCCCC#CC(=O)OC | inactive: -8% | –
20 | CC/C=C\CCOC(=O)C(C)C | inactive: -3.29% | –

Row | Structure (SMILES) | activation | Potency
21 | CC1(C)C(=O)N(Cl)C(=O)N1Cl | – | inconclusive: 6.16 µM [activator, partial curve, poor fit]
22 | CN1CCN(c2c(F)cc3c(=O)c(C(=O)O)cn4c3c2OCN4C)CC1 | inactive: 9.65% [at 15.8 µM] | –
23 | C1COCO1 | – | inconclusive: 19.5 µM [activator, partial curve]
24 | CCCCC(C)C(=O)O (stereo not given) | inactive: 7.75% | –
25 | CCCCNC1CC(C)(C)NC(C)(C)C1 | inactive: 4.3% | –
26 | Nc1cc([N+](=O)[O-])ccc1Cl | inactive: -9.88% | –
27 | COCCOC(=O)CC#N | – | inconclusive: 61.6 µM [rising, partial curve, poor fit]
28 | O=C(O)CCNC(=O)c1ccc(N=Nc2ccc(O)c(C(=O)O)c2)cc1 | inactive: 4.14% [at 35.3 µM] | –
29 | CCCCCCCCO | inactive: 16.5% | –
30 | O=C1c2ccccc2S(=O)(=O)N1CCCCN1CCN(c2ncccn2)CC1 | – | inconclusive: 26.8 µM [rising, partial curve, poor fit]
31 | CCCCS | inactive: 4.82% | –
32 | CC(C)=CCCC(C)CC=O (stereo not given) | inconclusive: 12.8% | –
33 | CCCCCCCCCCCCCCCCN(C)C | inactive: 8.03% [at 6.98 µM] | –
34 | O=C(OCCN1CCOCC1)c1cccnc1Nc1cccc(C(F)(F)F)c1 | inconclusive: -22.7% [at 35.3 µM] | –
35 | CCC1(C)C(=O)N(Cl)C(=O)N1Cl (stereo not given) | inactive: -0.623% | –
36 | O=C(O)c1cc(C(=O)O)cc([N+](=O)[O-])c1 | – | inconclusive: 61.6 µM [activator, partial curve, poor fit]
37 | C[C@@H](O)[C@H]1C(=O)N2C(C(=O)O)=C(S[C@@H]3CN[C@H](CNS(N)(=O)=O)C3)[C@H](C)[C@H]12 | inconclusive: -23.9% [at 35.3 µM] | –
38 | O=[N+]([O-])c1cccc(Cl)c1Cl | inconclusive: 5.23% | –
39 | O=C(O)COC(=O)Cc1ccccc1Nc1c(Cl)cccc1Cl | – | inconclusive: 23.9 µM [activator]
40 | FC(F)(F)C(F)(F)C(F)(F)C(F)(F)C(F)(F)C(F)(F)CCI | – | inconclusive: 23.9 µM [activator]

A second format for two compounds above.
Row	Structure (SMILES)	activation	Potency
24	CCCCC(C)C(=O)O (stereo not given)	inactive: 7.75%	–
25	CCCCNC1CC(C)(C)NC(C)(C)C1	inactive: 4.3%	–
